Reference: PubChem BioAssay AID602196 (INSERM, 2012)
Assay: 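Modifiers of cisplatin sensitivity in A549 cells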. Cells: human A549 lung cancer cells. Reagent: siRNA pair against human genes. Time to read-out: 48 h transfection before cisplatin; time from cisplatin to read-out not stated. Challenge: cisplatin at a dose killing half of control-siRNA cells; exact dose and duration not given. Read-out: 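Shift in cisplatin death relative to control siRNA, from -50 (all cells die) to +50 (no cells die); siRNAs harmful on their own scored 0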. Reading the numbers: two-siRNA summed score (-2 to +2): higher = both siRNAs protect from cisplatin killing; -2 means both sensitise; mean protection from cisplatin (shift in death): higher = protection from cisplatin killing. Rule for the call: 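Each siRNA scores 0 if harmful alone by LDH or WST-1, otherwise +1 if it reduces and -1 if it increases cisplatin killing; a gene is active when both siRNAs agree (sum +2 or -2)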. Calls: active = both siRNAs shift cisplatin killing the same way; inactive = no consistent shift, or siRNA harmful alone.
In all, the deposit lists about 23,000 reagents; below is an unselected part. 455 of all reagents (2%) were called active. 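Active includes both protection and sensitisation; some change values fall well beyond the stated -50 to +50 range.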 A number with no mark means an inactive call. Further read-outs or replicates are left out here. The record does not give: the amount of reagent.

| Target gene | PubChem SID | two-siRNA summed score (-2 to +2) | mean protection from cisplatin (shift in death) (%) |
| --- | --- | --- | --- |
| EFNA4 (GeneID 1945) | SID131520078 | 1 | 8.6 |
| LOC440945 | SID131516704 | 0 | 11.4 |
| FRMPD2 (GeneID 143162) | SID131504935 | 0 | -4.1 |
| HASPIN (GeneID 83903) | SID131500727 | -1 | -16.9 |
| LRIG2 (GeneID 9860) | SID131513312 | 0 | 6.4 |
| PCDHGA2 (GeneID 56113) | SID131519834 | 1 | 7.7 |
| UNK (GeneID 85451) | SID131514287 | 0 | 7.6 |
| ACLY (GeneID 47) | SID131520546 | 1 | 10.3 |
| BIN2 (GeneID 51411) | SID131511787 | 0 | 4.7 |
| LOC387876 | SID131512540 | 0 | 5.6 |
| BIN3 (GeneID 55909) | SID131503640 | 0 | -8.7 |
| LOC401081 | SID131514937 | 0 | 8.4 |
| ARHGAP4 (GeneID 393) | SID131521644 | 1 | 14.3 |
| MRPL14 (GeneID 64928) | SID131520206 | 1 | 9.1 |
| METTL3 (GeneID 56339) | SID131506522 | 0 | -1.4 |
| LIMS2 (GeneID 55679) | SID131513869 | 0 | 7.1 |
| CLEC18C (GeneID 283971) | SID131504782 | 0 | -4.5 |
| TAF3 (GeneID 83860) | SID131514855 | 0 | 8.3 |
| FMN1 (GeneID 342184) | SID131515868 | 0 | 9.8 |
| HNRNPA1P56 (GeneID 391670) | SID131509771 | 0 | 2.5 |
| ZNF799 (GeneID 90576) | SID131514870 | 0 | 8.4 |
| NEK11 (GeneID 79858) | SID131502371 | -1 | -3 |
| LOC441222 | SID131508896 | 0 | 1.6 |
| LOC400724 | SID131504134 | 0 | -6.4 |
| CRACR2A (GeneID 84766) | SID131510220 | 0 | 3 |
| OR9K2 (GeneID 441639) | SID131521316 | 1 | 13 |
| ASB8 (GeneID 140461) | SID131500401 | -2 (active) | -14.3 |
| POR (GeneID 5447) | SID131505319 | 0 | -3.4 |
| LOC442708 | SID131519717 | 1 | 7.1 |
| UPF1 (GeneID 5976) | SID131514047 | 0 | 7.3 |
| LOC441930 | SID131521568 | 1 | 14 |
| USP4 (GeneID 7375) | SID131503226 | 0 | -11.9 |
| TBCA (GeneID 6902) | SID131512372 | 0 | 5.4 |
| EIF3G (GeneID 8666) | SID131508363 | 0 | 1 |
| FICD (GeneID 11153) | SID131504879 | 0 | -4.3 |
| NUDT9 (GeneID 53343) | SID131500673 | -1 | -17.9 |
| VXN (GeneID 254778) | SID131503953 | 0 | -7.1 |
| LGSN (GeneID 51557) | SID131514696 | 0 | 8.1 |
| MALRD1 (GeneID 340895) | SID131520002 | 1 | 8.3 |
| KLHL3 (GeneID 26249) | SID131515080 | 0 | 8.6 |
| RNF5 (GeneID 6048) | SID131512179 | 0 | 5.2 |
| LOC441192 | SID131508778 | 0 | 1.5 |
| ACTL7B (GeneID 10880) | SID131520597 | 1 | 10.4 |
| ACSL3 (GeneID 2181) | SID131523015 | 2 (active) | 17 |
| LOC440064 | SID131522313 | 1 | 17.7 |
| IL1RAPL2 (GeneID 26280) | SID131505050 | 0 | -3.9 |
| SHLD1 (GeneID 149840) | SID131503583 | 0 | -9.1 |
| PIH1D1 (GeneID 55011) | SID131507215 | 0 | -0.4 |
| KRTAP6-3 (GeneID 337968) | SID131502162 | -1 | -4.8 |
| IL17C (GeneID 27189) | SID131502266 | -1 | -3.9 |
| LOC388814 | SID131504278 | 0 | -5.9 |
| CCDC54 (GeneID 84692) | SID131509594 | 0 | 2.3 |
| ST6GAL2 (GeneID 84620) | SID131512026 | 0 | 5 |
| YIPF3 (GeneID 25844) | SID131513936 | 0 | 7.2 |
| LOC285194 | SID131514385 | 0 | 7.7 |
| SH3TC2 (GeneID 79628) | SID131510834 | 0 | 3.7 |
| LOC441994 | SID131507818 | 0 | 0.3 |
| CBX2 (GeneID 84733) | SID131520382 | 1 | 9.7 |
| DGKZ (GeneID 8525) | SID131520610 | 1 | 10.5 |
| RFTN1 (GeneID 23180) | SID131516694 | 0 | 11.4 |
| PIGX (GeneID 54965) | SID131515928 | 0 | 9.9 |
| CRYGC (GeneID 1420) | SID131512524 | 0 | 5.6 |
| GANC (GeneID 2595) | SID131519895 | 1 | 7.9 |
| QRSL1 (GeneID 55278) | SID131509379 | 0 | 2.1 |
| PCDHB4 (GeneID 56131) | SID131511882 | 0 | 4.9 |
| LOC339539 (GeneID 339539) | SID131507212 | 0 | -0.4 |
| ARAP2 (GeneID 116984) | SID131507044 | 0 | -0.6 |
| HIF3A (GeneID 64344) | SID131501591 | -1 | -8.8 |
| LOC388885 | SID131518186 | 0 | 17.1 |
| SF3B6 (GeneID 51639) | SID131518373 | 0 | 18.8 |
| ARMC5 (GeneID 79798) | SID131508627 | 0 | 1.3 |
| TIMM17B (GeneID 10245) | SID131519104 | 1 | 2.4 |
| SRPRB (GeneID 58477) | SID131501952 | -1 | -6.4 |

Looked up above:
FICD (GeneID 11153) [SID131504879], mean protection from cisplatin (shift in death) (%): -4.3
Under “two-siRNA summed score (-2 to +2)”, ASB8 (GeneID 140461) [SID131500401] shows -2 (active)
Under “two-siRNA summed score (-2 to +2)”, RFTN1 (GeneID 23180) [SID131516694] is entered as 0
Entry for IL1RAPL2 (GeneID 26280) [SID131505050] in “mean protection from cisplatin (shift in death) (%)”: -3.9
TIMM17B (GeneID 10245) [SID131519104], two-siRNA summed score (-2 to +2) → 1
LOC441930 [SID131521568], two-siRNA summed score (-2 to +2) = 1
